Where a chain is given by its changes, count along the chain named. Results are given in words; binding and its absence hold for the method and conditions named. In cells and extracts the contact can be indirect. Some results given as binding are weak or reduced against the parent protein; the word gives no strength. For part of these data: Tags and fused reporters may be left off the sequences shown.
Legend:
Assay in all cases: co-IP
[1] = biological target: T1, FLAG-PER2(S662D) expressed in HCT116 p53+/+ cells (human) (UniProt O15055)
T1 sequence: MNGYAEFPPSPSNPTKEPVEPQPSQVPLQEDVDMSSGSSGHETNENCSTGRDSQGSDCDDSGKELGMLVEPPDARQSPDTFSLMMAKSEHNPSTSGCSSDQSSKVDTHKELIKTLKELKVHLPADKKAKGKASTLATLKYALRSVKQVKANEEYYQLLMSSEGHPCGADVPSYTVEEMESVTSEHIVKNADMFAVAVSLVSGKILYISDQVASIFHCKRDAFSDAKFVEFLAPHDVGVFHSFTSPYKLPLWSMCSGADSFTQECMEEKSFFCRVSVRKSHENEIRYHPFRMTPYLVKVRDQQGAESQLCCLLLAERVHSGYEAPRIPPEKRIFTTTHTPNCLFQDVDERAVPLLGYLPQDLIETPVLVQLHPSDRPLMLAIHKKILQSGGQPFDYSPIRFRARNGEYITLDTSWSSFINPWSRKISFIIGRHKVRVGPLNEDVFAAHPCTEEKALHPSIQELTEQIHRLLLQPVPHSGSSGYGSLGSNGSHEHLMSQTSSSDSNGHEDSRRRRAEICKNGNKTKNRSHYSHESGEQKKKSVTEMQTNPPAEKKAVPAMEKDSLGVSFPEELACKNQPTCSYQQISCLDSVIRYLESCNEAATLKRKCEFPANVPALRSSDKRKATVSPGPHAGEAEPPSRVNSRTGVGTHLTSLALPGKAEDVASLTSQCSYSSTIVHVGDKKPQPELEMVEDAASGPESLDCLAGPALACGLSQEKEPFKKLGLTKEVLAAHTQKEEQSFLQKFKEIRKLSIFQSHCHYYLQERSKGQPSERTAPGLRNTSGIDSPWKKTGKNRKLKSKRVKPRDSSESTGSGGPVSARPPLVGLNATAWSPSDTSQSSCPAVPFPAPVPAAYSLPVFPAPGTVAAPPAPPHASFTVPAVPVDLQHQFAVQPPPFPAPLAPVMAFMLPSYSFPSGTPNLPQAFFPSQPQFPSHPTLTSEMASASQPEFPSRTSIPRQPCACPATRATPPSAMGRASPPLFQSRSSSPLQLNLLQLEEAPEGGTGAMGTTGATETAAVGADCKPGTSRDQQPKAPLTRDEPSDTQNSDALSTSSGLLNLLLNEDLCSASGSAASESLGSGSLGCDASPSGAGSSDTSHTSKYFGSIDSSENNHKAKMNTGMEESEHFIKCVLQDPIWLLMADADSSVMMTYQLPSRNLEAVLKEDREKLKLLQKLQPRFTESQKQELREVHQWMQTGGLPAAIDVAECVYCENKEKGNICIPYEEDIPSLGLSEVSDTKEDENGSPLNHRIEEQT

Sequences of proteins named here, by UniProt entry; tags and fusion partners are left off.
UniProt Q00987: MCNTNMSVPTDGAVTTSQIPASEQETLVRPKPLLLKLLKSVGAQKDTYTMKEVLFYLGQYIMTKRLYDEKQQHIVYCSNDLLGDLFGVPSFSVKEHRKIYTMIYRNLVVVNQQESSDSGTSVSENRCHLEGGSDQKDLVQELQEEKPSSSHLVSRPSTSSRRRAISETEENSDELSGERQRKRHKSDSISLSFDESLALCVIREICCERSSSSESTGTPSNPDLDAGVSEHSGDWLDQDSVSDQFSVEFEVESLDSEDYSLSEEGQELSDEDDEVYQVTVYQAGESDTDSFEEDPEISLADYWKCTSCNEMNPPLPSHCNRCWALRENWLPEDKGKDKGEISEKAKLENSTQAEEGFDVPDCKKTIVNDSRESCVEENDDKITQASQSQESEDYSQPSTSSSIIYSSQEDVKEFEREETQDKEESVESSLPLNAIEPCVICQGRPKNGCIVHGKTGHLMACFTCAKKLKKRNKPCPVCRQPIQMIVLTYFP

[2] = biological target: T2, FLAG-PER2 expressed in HCT116 p53+/+ cells (human) (UniProt O15055)
T2 sequence: T1 sequence with D662S

[3] = biological target: T3, endogenous PER2 of HCT116 cells (human (endogenous in HCT116)) (UniProt O15055)
T3 sequence: T1 sequence with D662S

Measured: binding

endogenous MDM2 of HCT116 p53+/+ cells (from UniProt Q00987 1-491)
binds: [1] | [2] | [3]
